The supplement of paper PMC7666118
The list shows a part of the results.

Protein sequences, listed by entry. Tags and fused reporters are not part of them. Lines headed by an entry give the natural chain unless they say otherwise; changes in a name come on top.
UniProt P42126: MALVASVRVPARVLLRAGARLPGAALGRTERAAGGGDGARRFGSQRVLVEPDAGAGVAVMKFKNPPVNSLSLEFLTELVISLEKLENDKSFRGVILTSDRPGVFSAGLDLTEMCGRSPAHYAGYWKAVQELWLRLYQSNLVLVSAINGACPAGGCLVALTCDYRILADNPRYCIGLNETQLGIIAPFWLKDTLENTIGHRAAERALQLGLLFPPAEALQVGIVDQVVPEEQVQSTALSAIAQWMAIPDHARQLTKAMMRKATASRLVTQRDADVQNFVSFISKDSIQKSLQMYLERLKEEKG
UniProt P10515, whole entry: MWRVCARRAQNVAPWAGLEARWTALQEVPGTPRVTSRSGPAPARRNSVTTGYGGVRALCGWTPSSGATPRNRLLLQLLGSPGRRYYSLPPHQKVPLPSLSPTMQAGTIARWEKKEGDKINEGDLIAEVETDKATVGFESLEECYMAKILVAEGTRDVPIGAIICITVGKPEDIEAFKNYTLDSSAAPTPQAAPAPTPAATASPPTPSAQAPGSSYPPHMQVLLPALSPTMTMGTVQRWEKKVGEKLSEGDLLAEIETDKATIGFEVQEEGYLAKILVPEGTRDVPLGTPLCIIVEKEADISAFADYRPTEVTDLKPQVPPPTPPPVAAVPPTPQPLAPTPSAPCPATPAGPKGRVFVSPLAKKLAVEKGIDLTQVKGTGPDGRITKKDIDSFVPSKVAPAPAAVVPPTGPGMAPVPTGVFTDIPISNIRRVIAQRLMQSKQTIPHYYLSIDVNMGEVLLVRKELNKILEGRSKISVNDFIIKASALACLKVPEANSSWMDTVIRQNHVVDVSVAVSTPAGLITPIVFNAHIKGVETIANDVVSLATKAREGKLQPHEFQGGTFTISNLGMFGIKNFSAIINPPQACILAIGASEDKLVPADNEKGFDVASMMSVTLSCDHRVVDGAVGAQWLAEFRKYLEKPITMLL
UniProt Q9UHI6: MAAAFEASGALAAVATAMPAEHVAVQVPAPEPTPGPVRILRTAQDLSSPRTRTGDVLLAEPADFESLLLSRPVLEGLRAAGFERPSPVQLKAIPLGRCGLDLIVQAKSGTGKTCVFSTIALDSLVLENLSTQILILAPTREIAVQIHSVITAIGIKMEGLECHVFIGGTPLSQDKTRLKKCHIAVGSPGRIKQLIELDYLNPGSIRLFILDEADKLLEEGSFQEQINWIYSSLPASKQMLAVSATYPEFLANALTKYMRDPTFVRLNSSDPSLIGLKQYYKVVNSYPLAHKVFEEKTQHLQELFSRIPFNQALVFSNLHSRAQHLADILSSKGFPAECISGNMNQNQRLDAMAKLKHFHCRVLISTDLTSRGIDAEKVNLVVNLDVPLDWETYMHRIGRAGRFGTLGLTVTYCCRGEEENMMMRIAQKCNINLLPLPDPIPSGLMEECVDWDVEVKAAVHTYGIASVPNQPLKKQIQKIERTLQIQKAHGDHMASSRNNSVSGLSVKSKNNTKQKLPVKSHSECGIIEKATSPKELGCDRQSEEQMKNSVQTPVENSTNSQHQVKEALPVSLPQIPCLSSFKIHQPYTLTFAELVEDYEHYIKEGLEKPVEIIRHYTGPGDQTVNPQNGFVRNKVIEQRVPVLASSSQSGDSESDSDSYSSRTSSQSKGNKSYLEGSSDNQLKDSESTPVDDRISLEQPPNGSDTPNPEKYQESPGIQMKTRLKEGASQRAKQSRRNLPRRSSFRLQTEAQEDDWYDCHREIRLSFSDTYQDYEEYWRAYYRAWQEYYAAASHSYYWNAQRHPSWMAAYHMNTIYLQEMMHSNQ
UniProt O43293: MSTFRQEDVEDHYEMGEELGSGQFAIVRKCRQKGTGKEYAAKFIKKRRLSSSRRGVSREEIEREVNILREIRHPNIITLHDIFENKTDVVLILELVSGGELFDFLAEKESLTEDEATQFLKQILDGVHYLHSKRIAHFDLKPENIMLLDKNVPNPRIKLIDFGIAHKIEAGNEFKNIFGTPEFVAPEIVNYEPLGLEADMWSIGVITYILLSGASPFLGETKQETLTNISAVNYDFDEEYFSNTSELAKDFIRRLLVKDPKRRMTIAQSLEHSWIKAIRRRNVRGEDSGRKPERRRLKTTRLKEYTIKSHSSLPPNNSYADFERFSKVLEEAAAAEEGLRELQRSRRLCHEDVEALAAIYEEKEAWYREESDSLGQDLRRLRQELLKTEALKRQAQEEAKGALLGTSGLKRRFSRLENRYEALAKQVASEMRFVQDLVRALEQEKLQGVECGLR
UniProt Q99615: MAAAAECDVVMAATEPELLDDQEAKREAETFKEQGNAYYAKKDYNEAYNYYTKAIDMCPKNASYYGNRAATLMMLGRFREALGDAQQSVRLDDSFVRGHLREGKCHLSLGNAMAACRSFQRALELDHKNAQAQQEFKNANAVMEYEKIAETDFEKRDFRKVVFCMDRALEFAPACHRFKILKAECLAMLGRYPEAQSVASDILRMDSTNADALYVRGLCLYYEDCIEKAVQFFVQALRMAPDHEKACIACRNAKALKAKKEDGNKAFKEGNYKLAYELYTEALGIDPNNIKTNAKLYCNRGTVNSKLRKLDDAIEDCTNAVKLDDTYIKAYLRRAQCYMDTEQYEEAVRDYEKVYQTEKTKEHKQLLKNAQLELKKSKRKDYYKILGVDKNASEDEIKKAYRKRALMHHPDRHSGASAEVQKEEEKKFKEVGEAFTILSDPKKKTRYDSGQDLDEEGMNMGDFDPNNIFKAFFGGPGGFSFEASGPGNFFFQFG
UniProt O60879: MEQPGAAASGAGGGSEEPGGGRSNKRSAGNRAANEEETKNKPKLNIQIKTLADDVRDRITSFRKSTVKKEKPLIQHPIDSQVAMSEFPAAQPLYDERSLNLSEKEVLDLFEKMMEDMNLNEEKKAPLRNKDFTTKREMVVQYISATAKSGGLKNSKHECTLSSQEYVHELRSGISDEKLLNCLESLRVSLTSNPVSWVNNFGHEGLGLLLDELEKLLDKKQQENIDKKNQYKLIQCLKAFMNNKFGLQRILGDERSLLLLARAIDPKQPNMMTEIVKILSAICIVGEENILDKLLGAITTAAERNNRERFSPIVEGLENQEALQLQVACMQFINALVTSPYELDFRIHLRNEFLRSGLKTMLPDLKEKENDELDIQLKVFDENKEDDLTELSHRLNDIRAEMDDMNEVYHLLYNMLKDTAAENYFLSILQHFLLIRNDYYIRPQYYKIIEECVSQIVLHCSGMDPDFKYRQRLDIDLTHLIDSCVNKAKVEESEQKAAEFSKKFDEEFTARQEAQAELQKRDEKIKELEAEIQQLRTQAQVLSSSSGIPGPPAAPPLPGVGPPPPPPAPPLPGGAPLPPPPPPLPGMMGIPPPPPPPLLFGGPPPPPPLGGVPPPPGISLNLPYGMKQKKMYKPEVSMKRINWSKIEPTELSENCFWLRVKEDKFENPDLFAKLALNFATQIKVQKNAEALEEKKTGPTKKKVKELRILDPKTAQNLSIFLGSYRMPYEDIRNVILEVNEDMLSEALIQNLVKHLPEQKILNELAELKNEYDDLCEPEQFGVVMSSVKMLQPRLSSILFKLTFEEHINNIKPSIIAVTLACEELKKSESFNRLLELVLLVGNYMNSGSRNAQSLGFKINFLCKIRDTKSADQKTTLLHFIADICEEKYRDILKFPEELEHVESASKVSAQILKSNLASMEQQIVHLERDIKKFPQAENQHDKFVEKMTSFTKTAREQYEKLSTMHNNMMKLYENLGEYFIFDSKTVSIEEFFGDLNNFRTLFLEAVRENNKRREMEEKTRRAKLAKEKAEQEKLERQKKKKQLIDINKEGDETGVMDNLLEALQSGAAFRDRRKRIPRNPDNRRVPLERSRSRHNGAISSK
UniProt Q7L014: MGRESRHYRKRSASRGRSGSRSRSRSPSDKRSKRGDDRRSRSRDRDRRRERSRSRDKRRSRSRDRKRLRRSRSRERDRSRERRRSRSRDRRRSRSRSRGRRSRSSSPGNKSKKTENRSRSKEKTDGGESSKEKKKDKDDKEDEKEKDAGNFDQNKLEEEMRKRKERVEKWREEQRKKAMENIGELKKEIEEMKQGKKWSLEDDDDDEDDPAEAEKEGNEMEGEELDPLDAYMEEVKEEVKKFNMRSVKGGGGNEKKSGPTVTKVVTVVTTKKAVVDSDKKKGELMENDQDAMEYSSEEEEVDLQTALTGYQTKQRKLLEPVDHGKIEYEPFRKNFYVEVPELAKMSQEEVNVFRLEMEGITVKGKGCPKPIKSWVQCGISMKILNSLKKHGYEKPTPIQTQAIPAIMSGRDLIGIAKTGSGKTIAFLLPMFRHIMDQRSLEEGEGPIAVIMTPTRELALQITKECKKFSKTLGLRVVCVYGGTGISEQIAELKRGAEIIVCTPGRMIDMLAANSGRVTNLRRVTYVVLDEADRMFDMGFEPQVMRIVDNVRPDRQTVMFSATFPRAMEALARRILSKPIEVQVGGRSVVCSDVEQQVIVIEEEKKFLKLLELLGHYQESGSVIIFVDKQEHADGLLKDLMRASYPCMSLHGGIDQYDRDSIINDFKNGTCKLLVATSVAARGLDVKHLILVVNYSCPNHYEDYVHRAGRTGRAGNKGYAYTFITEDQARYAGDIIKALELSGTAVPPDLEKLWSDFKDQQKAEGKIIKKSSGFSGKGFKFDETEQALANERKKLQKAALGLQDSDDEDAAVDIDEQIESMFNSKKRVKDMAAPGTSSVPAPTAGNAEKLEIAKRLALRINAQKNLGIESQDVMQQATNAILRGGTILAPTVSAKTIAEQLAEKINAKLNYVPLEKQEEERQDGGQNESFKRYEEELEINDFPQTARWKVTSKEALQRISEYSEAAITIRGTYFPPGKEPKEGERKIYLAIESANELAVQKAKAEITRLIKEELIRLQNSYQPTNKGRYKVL
UniProt Q68D51: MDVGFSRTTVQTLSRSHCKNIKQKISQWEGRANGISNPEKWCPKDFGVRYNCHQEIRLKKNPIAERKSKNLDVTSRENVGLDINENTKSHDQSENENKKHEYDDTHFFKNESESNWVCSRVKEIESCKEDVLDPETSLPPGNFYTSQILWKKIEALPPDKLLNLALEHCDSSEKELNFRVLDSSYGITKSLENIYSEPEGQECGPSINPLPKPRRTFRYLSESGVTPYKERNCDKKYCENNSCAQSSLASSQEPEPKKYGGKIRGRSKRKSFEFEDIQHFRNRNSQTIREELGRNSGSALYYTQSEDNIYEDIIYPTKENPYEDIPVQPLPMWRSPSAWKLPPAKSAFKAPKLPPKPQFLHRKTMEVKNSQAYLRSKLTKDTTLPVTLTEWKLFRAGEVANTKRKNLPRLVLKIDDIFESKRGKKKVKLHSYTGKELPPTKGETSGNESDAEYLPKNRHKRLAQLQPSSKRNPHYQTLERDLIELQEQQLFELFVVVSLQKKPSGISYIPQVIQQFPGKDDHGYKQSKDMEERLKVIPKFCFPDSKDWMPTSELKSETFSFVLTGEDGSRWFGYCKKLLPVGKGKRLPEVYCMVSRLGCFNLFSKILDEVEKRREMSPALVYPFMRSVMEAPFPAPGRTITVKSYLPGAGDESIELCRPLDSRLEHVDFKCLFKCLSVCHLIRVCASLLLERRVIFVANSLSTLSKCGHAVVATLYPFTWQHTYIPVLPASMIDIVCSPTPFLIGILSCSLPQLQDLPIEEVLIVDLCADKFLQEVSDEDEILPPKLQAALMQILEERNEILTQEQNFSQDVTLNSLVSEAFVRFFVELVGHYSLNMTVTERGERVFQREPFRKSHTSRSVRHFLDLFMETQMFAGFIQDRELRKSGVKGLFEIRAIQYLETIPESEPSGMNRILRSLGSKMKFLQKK
UniProt Q99704: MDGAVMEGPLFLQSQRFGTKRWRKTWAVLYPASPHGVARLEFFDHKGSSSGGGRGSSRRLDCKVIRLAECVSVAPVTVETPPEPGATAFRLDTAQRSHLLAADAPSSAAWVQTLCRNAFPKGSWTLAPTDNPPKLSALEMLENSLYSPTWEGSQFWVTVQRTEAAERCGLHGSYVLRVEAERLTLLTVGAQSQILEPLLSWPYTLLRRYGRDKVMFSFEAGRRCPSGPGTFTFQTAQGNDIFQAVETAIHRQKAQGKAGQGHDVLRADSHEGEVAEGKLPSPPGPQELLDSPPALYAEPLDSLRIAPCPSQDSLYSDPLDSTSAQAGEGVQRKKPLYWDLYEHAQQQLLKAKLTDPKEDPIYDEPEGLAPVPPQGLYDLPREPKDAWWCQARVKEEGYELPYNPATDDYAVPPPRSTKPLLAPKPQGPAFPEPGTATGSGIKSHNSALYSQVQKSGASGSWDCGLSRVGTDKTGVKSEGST
UniProt Q96HY6: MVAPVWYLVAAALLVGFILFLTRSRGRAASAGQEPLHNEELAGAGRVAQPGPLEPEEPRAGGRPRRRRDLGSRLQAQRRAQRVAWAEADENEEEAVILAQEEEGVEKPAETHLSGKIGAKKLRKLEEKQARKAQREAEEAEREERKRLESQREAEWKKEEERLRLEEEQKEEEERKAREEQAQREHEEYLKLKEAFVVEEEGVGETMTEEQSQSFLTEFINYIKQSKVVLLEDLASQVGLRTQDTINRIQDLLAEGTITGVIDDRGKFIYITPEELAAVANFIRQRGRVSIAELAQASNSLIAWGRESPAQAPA

compound: COc1ccc(Cn2ccc3cc(C)c(C(=O)NO)cc32)cc1; test: dose-dependent thermal stabilisation call (2D-TPP, DLPTP, 10% FDR) (binary (1 = stabilised)); higher = stabilised by the compound; conditions: system: HL-60 intact cells; concentration range 0.04-10 µM
Method: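 2D thermal proteome profiling in intact HL-60 cells treated with BRD-3811 (0, 0.04, 0.29, 2, 10 uM) for 90 min at 37 C, then heated 3 min at one of 12 temperatures (42-63.9 C). Soluble protein was quantified by TMT10 MS. The value is the DLPTP call of the paper: dose-dependent thermal stabilisation over all temperatures at 10% FDR (F-test of a dose-response against a flat model); one experiment, one call per tested protein.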

Target | dose-dependent thermal stabilisation call
DECR1 (UniProt Q16698) | active: 1
DDX3X (UniProt O00571) | inactive: 0
DCI (UniProt P42126) | inactive: 0
DLAT (UniProt P10515) | inactive: 0
DIP2B (UniProt Q9P265) | inactive: 0
CTCF (UniProt P49711) | inactive: 0
DDX20 (UniProt Q9UHI6) | inactive: 0
DNAJB14 (UniProt Q8TBM8) | inactive: 0
DDB1 (UniProt Q16531) | inactive: 0
CSDE1 (UniProt O75534) | inactive: 0
DNAJC5 (UniProt Q9H3Z4) | inactive: 0
DAPK3 (UniProt O43293) | inactive: 0
DNAJC7 (UniProt Q99615) | inactive: 0
DAP3 (UniProt P51398) | inactive: 0
DHCR7 (UniProt Q9UBM7) | inactive: 0
DGUOK (UniProt Q16854) | inactive: 0
DHX38 (UniProt Q92620) | inactive: 0
CSNK1A1 (UniProt P48729) | inactive: 0
DIAPH2 (UniProt O60879) | inactive: 0
DMAP1 (UniProt Q9NPF5) | inactive: 0

Taken from above.
Under dose-dependent thermal stabilisation call, DNAJC7 (UniProt Q99615) reads inactive: 0
Under dose-dependent thermal stabilisation call, DMAP1 (UniProt Q9NPF5) reads inactive: 0

Remaining list, next part:

Target | dose-dependent thermal stabilisation call
DDX46 (UniProt Q7L014) | inactive: 0
CXORF26 (UniProt Q9BVG4) | inactive: 0
DLGAP5 (UniProt Q15398) | inactive: 0
CTSG (UniProt P08311) | inactive: 0
DIS3 (UniProt Q9Y2L1) | inactive: 0
DOCK7 (UniProt Q96N67) | inactive: 0
CUX1 | inactive: 0
CYBRD1 (UniProt Q53TN4) | inactive: 0
CUTA (UniProt O60888) | inactive: 0
DENND2C (UniProt Q68D51) | inactive: 0
DDX47 (UniProt Q9H0S4) | inactive: 0
CWC15 (UniProt Q9P013) | inactive: 0
CSNK2A1 (UniProt P68400) | inactive: 0
CUL1 (UniProt Q13616) | inactive: 0
DOK1 (UniProt Q99704) | inactive: 0
DDRGK1 (UniProt Q96HY6) | inactive: 0
DBN1 (UniProt Q16643) | inactive: 0
DIS3L (UniProt Q8TF46) | inactive: 0
CTAGE5 (UniProt Q96PC5) | inactive: 0
DAD1 (UniProt P61803) | inactive: 0
